The target of the test is DrRecJ-like dimerization-defect mutant DrRecJ-like^m (F185A, Y213A, L220A) (Deinococcus radiodurans) (UniProt Q9RW43). The experiment in a line: SEC; analytical gel filtration, Superdex 75 10/300 GL, 20 mM Tris pH 8.0, 100 mM NaCl, 1 mM TCEP; 300 ul of 1 mM protein loaded; calibrated with protein standards (6.5-75 kDa); both purified. (Size exclusion chromatography separates by hydrodynamic size, large species first.)

These are yes or no findings as the source states them, for the method shown.

B1: DrRecJ-like dimerization-defect mutant DrRecJ-like^m (F185A, Y213A, L220A) (enzyme, UniProt Q9RW43 1-338)
chain: MTAENSATPDYRRNVGAVADALLAHPGPIVVLSHENPDGDALGSVLGLSRALRTLGKTVLAPMTVPHYLSFLPQPGELTAPLESWPQGALAAVLDVDNNDPVRVAGADLTQFDGPVVNVDHHGTNLRRADAGVVDPSKPAAAMMVADVIDALGAPWSEAVATPLMLGLNTDTGNFAFDSVSAETAECAARLRAHGARIGWLNDQMRQNPQSYALLLREVAGKLEFLHGGRVVQTRVDEEMLARAGATWEQVENYVSMLRNAEGAQLAVMAKDYGDRVKFSLRSRGPVSAQNIAVALGGGGHVPAAGATVISSYAEARARLDAAIEAELARVDAQATAE
With B1, the binding entry is on record as “no binding (tested: 1 mM)”.

Source of the values: publication PMC11229311, “Structural and functional investigation of the DHH/DHHA1 family proteins in Deinococcus radiodurans” (Nucleic Acids Research, 2024).
